{"source": "patent US7737119B2", "about": "“Cosmetic or pharmaceutical composition comprising peptides, uses and treatment processes” (Societe d'Extraction des Principes Actifs S.A., priority 2002, dated 2010)", "system": "keratinocytes", "assay": "Adhesion between cutaneous cells, MTT reading of adherent keratinocytes in 96 well micro-plates", "format": "cell-based", "conditions": "Condition C: wells pre-treated 12 hours with peptide at 5 ppm, 3 hours of contact with keratinocytes, 560 nm against 630 nm", "method": "The study is performed in 96 well micro-plates on keratinocytes cultured in an incubator at 37° C. and 5% of CO2.\nThe wells are pre-treated during 12 hours in a different way; four conditions are thus performed: • Condition A: negative control, containing no peptide; • Condition B: incubated with various peptides, made of 3 to 25 amino acids (from the extracellular matrix), with a concentration from 5 to 50 ppm; • Condition C: incubated with the peptide of sequence Arg-Asp-Phe-Thr-Lys-Ala-Thr-Asn-Ile-Arg-Leu-Arg-Phe-Leu-Arg (SEQ ID NO: 3) to a concentration of 5 ppm.\nAfter 3 hours of contact with the keratinocytes, the wells are completely filled with culture medium, hermetically closed, turned over and agitated on a three-dimensional agitator during 20 minutes. Then the plates are emptied and the medium remaining is aspired. 100 μl of MTT with 1 mg/ml per well is added and is left during 3 hours at 37° C. and 5% of CO2. The solution is finally withdrawn and 100 μl of DMSO is added. A reading of C is made at 560 nm against 630 nm.\nThe results present the various Optical Density (O.D.) obtained according to the various conditions. The O.D. is proportional to the quantity of viable cells, that is to say those which adhered to the micro-plates.", "note": "Part of at least one peptide drawing is inferred or uncertain, most often the ends. Where no end group is shown, it is not given here.", "data": [{"sequence": "RDFTKATNIRLRFLR [SEQ ID NO: 3, Arg-Asp-Phe-Thr-Lys-Ala-Thr-Asn-Ile-Arg-Leu-Arg-Phe-Leu-Arg]", "values": [{"measurement": "O.D.", "value": 0.43}]}]}
